# Primary screen of a compound library

Amino acid sequences for entries named in this document (tags omitted).
UniProt P9WNZ1, whole entry: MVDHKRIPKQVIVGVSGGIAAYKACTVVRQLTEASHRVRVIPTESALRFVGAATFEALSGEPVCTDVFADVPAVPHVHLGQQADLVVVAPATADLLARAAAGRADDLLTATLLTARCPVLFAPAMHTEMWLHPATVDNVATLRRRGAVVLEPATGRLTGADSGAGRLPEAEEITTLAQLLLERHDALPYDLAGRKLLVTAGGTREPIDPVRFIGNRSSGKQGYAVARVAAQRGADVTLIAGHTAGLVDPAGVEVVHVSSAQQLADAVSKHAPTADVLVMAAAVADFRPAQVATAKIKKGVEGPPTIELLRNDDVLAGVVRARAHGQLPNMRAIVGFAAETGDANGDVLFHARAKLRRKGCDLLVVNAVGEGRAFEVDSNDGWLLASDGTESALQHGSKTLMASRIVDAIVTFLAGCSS
UniProt P9WFT3, whole entry: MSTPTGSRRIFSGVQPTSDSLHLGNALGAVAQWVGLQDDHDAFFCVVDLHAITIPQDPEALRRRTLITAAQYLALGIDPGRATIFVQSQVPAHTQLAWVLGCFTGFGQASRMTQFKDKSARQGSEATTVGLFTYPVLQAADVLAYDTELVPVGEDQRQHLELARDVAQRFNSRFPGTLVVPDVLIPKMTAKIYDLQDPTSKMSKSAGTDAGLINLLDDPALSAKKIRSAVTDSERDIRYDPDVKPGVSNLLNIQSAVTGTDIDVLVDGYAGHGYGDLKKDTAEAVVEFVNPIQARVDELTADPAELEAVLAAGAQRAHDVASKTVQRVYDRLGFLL

Each number is a percent effect as filed.
The controls that fix the scale are not given in the record; negative values are as filed.
The compounds are a random part of those screened.

CoaBC: 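Enzyme assay of CoaBC with a phosphate dye (Biomol Green) read at 650 nm. Target: Coenzyme A biosynthesis protein CoaBC, Mycobacterium tuberculosis (UniProt P9WNZ1). Concentration: 30 µM. Direction is inferred from only a few compounds that gave an IC50; most scored high, so higher reads as stronger inhibition. Most strong results did not repeat in a second test. Of about 67,000 compounds tested this way, about 40 (0.06%) reached 50% or more in at least one test.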
MtTrpRS: 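Enzyme assay of tryptophanyl-tRNA synthetase; the read-out is not stated. Target: Tryptophan-tRNA ligase, Mycobacterium tuberculosis (UniProt P9WFT3). Tested at 10 µM. Direction is not recorded; retested compounds ran higher, which suggests that high means inhibition. Of about 65,000 compounds tested this way, about 64 (0.098%) reached 50% or more in at least one test.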

structure: CCN1CC(C(=O)NCc2cccc(SC)c2)CC1=O (configuration not stated)
CoaBC: -2.571
MtTrpRS: -0.5659

structure: COc1ccccc1CN1CC[C@]2(C[C@@H](OC)CO2)C1
CoaBC: -3.008
MtTrpRS: 2.351

structure: O=C(CC1CC1)N(Cc1cccnc1)CC1CCN(C2CCCC2)CC1
CoaBC: 5.4
MtTrpRS: 0

structure: CN(Cc1cc[nH]n1)C(C(=O)O)c1ccc(Cl)cc1 (configuration not stated)
CoaBC: 6.813
MtTrpRS: 0.5435

structure: CCCN1CCCN(C(=O)c2oc(C)nc2C)CC1
CoaBC: 0.6337
MtTrpRS: -1.613

structure: COCCN1C(=O)C2(CCC(C(=O)Nc3ccc(F)cc3)CC2)N=C1C (configuration not stated)
CoaBC: 11.25
MtTrpRS: -1.481

structure: Cc1ccc(CN2C[C@@H]3C[C@H](C(=O)NCC4CC4)N(C)[C@@H]3C2)o1
CoaBC: -2.353
MtTrpRS: 9.453

structure: COc1ccc(Cl)cc1CCNC(=O)NCc1noc(C)n1
CoaBC: -3.271
MtTrpRS: 2.957

structure: Cn1nc2c(cc1=O)CN(CC1CCCCO1)CC2 (configuration not stated)
CoaBC: 12.75
MtTrpRS: 4.107

structure: O=C(Nc1ccc(Br)cc1F)c1cc(CN2CCOCC2)on1
CoaBC: 2.785
MtTrpRS: 1.431

structure: CC(=O)NCC1CCN(C(=O)c2ccc(Sc3ccccn3)cc2)CC1
CoaBC: 11.32
MtTrpRS: -1.386

structure: CSCCCNC(=O)Nc1cccc(-c2nccn2C)c1
CoaBC: -5.485
MtTrpRS: 1.137

structure: CC(=O)N1CCC2(CC1)CN(C(=O)c1ccc3c(c1)OCO3)C2
CoaBC: 1.527
MtTrpRS: -5.093

structure: Cc1c(F)cccc1S(=O)(=O)NCCN
CoaBC: 1.29
MtTrpRS: -0.4571

structure: CNC(=O)c1ccc(C2CCCN(C(=O)c3c(C)noc3C)C2)nc1 (configuration not stated)
CoaBC: 5.839
MtTrpRS: -4.116

structure: COc1ccc(CN(C)CC(=O)c2ccc3[nH]c(=O)[nH]c3c2)cc1F
CoaBC: 4.689
MtTrpRS: -0.6571

structure: COCCCNS(=O)(=O)c1ccc(N2CCCCS2(=O)=O)cc1
CoaBC: 0.1203
MtTrpRS: 1.908

structure: O=C1NCCCCC1SCc1coc(-c2cccc(F)c2)n1 (configuration not stated)
MtTrpRS: -9.99

structure: CN1CCN(C[C@@H]2OC[C@H]3CN(Cc4ccncc4)CC[C@H]32)CC1
CoaBC: -0.9877
MtTrpRS: -1.724

structure: CC(NC(=O)CN1C=Nc2ccccc2S1(=O)=O)C1CC1 (configuration not stated)
CoaBC: -1.768
MtTrpRS: 1.763

structure: O=C(NCCC(=O)N1CCCC1)c1nn(-c2ccccc2F)cc1O
CoaBC: 18.89
MtTrpRS: -0.4859

structure: CN1CCCN(C(=O)NCc2ccccc2Cn2cncn2)CC1
CoaBC: 0.6889
MtTrpRS: 7.68

structure: Cc1cc(N2CCC(Cc3cnccn3)C2)ncn1 (configuration not stated)
CoaBC: 5.938
MtTrpRS: -3.601

structure: O=C(c1cccnc1SCc1ccccc1)N1CCOCC1
CoaBC: 4.854

structure: Cn1cc(C(=O)NC2CCN(C(=O)NCC3CCSCC3)CC2)cn1
CoaBC: -0.5222
MtTrpRS: -3.801

structure: CC(C)c1ccc(OCCNC(=O)c2ccoc2)cc1
CoaBC: 6.49
MtTrpRS: 1.256

structure: CCn1cc(Br)c(C(=O)NCc2ccc(F)cc2)n1
CoaBC: -3.789
MtTrpRS: 2.437

structure: CCn1nnc2c1C(COC)CN(Cc1cccs1)C2 (configuration not stated)
CoaBC: 3.934
MtTrpRS: -1.501

structure: CC(=O)NC1CCCN(C(=O)NCc2ccc(-n3cccn3)cc2)C1 (configuration not stated)
CoaBC: 0
MtTrpRS: -7.569

structure: Cc1ncc(CN2CCOC(CNc3cccnn3)C2)s1 (configuration not stated)
CoaBC: -16.82
MtTrpRS: -7.398

structure: Cc1ccc(C2CSCCN2C(=O)NCc2cccnc2)cc1 (configuration not stated)
CoaBC: 1.841
MtTrpRS: -6.862

structure: CC(C)c1cc(NCc2csc(C(C)C)n2)nc(N)n1
CoaBC: 7.239
MtTrpRS: -0.9046

structure: COc1ccc(-c2cc(C3CC3)c(C#N)c(N)n2)cc1F
CoaBC: 1.887
MtTrpRS: 2.313

structure: Cc1ccc(CNC(=O)c2ccc(=O)n(C)n2)c(OCC2CC2)c1
CoaBC: 9.918
MtTrpRS: -2.067

structure: O=C(c1cccc(Cl)c1)N1CC[C@H]2[C@H]1CCN2CC1CC1
CoaBC: 2.349
MtTrpRS: -0.07582

structure: CC(Oc1ccccc1C(F)(F)F)C(=O)NCC(N)=O (configuration not stated)
CoaBC: -1.863
MtTrpRS: -0.1876

structure: CCOCC1CC2(CCN(C(=O)CC3=CCCCC3)CC2)CO1 (configuration not stated)
MtTrpRS: -2.05

structure: CCc1cc(N2CCC(NCCSc3nnnn3C)CC2)nc(C)n1
CoaBC: 0
MtTrpRS: -1.867

structure: Cc1cccc(Nc2nccnc2C2CCCN(CC(=O)N(C)C)C2)n1 (configuration not stated)
CoaBC: 7.022

structure: Cc1cc(CN2CC[C@H]3C[C@H](C(=O)N4CCC(C)CC4)O[C@H]3C2)no1
CoaBC: 7.712
MtTrpRS: 5.841

structure: Cc1nc(CC(=O)N2CCOC(c3nc(C(C)(C)C)n[nH]3)C2)cs1 (configuration not stated)
CoaBC: -3.205
MtTrpRS: -0.4409

structure: CCN(C)Cc1n[nH]c(=O)n1-c1ccc(C)c(C)c1
CoaBC: -0.2469
MtTrpRS: -7.204

The values are deposited in ChEMBL (CHEMBL3988442, “University of Dundee, Small-Polar-MMV Screening Library” (2021)).